Values from PubChem BioAssay AID504808 (Drosophila RNAi Screening Center, 2011).
The screen tested about 21,000 reagents; below is an unselected part of those that have a named target and a result. Over the whole deposit, 18 (0.084%) are marked active. 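Raw counts without plate normalisation, one of two replicates; the ratio scores behind the calls were not deposited.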 Names joined by + are all predicted targets of the reagent. The record does not give: the amount of reagent, the time to read-out.

Test: 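Fly genes required to hold E2F transcription in check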 (primary screen)
System: Drosophila S2 cells
Knock-down reagent: long dsRNA against Drosophila genes
Read-out: 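Dual luciferase plate measurements; E2F-specific signal taken as firefly over Renilla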
Reading the numbers: E2F firefly: higher = more E2F reporter activity; Renilla normaliser: higher = more normaliser reporter signal
Hit rule: 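Called active if the normalised E2F reporter went up by over 50%; the cutoff is arbitrary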

predicted target | DRSC id | E2F firefly, rep 1 | Renilla normaliser, rep 1 | Call
CG10333 | DRSC02036 | 76010 | 3801 | inactive
His1:CG33816 + His1:CG33828 + His1:CG33819 + 21 more | DRSC21266 | 1.33e5 | 6574 | inactive
CG10339 | DRSC04065 | 1.34e5 | 5184 | inactive
DptA (Diptericin A) | DRSC07404 | 1.47e5 | 5209 | inactive
Cib2 (Calcium and integrin binding family member 2) | DRSC04535 | 1.08e5 | 4167 | inactive
Acbp2 (Acyl-CoA binding protein 2) | DRSC11141 | 1.02e5 | 4022 | inactive
CG3726 | DRSC18320 | 61372 | 860 | inactive
Cpr76Ba (Cuticular protein 76Ba) | DRSC11060 | 1.23e5 | 6524 | inactive
CG2701 | DRSC18590 | 1864 | 888 | inactive
CG16984 | DRSC08500 | 86308 | 4722 | inactive
wfs1 (wolfram syndrome 1) | DRSC15676 | 1.08e5 | 6152 | inactive
tko (technical knockout) | DRSC18844 | 99443 | 4769 | inactive
Dgkepsilon (Diacyl glycerol kinase epsilon) | DRSC07399 | 134 | 33 | inactive
l(3)neo38 (lethal (3) neo38) | DRSC14946 | 1.47e5 | 7080 | inactive
l(3)neo38 (lethal (3) neo38) | DRSC16138 | 1.47e5 | 6761 | inactive
Gdap1 | DRSC10437 | 93101 | 3840 | inactive
ND1 (retired record) | DRSC21273 | 1.26e5 | 4795 | inactive
CG1428 | DRSC03708 | 1.14e5 | 4363 | inactive
ap (apterous) | DRSC04917 | 77420 | 4065 | inactive
Mys45A (Mystery 45A) | DRSC07067 | 2458 | 193 | inactive
CG32486 | DRSC08413 | 73221 | 3666 | inactive
CG32486 | DRSC08488 | 1.02e5 | 3922 | inactive
CG13018 | DRSC06274 | 98319 | 4571 | inactive
CG17187 | DRSC15181 | 1.17e5 | 5876 | inactive
CG10274 | DRSC09716 | 68084 | 3421 | inactive
Atg8b (Autophagy-related 8b) | DRSC14501 | 1.26e5 | 8175 | inactive
kl-3 (retired record) | DRSC20730 | 83809 | 2617 | inactive
kl-3 (retired record) | DRSC20891 | 1.35e5 | 6116 | inactive
kl-3 (retired record) | DRSC20934 | 95875 | 3719 | inactive
borr (borealin-related) | DRSC02749 | 63787 | 3892 | inactive
CG3708 | DRSC18646 | 1.38e5 | 7523 | inactive
CG12581 | DRSC12206 | 75467 | 4124 | inactive
CG12581 | DRSC12207 | 1.39e5 | 6266 | inactive
Sp1 | DRSC17622 | 80173 | 2245 | inactive
Sp1 | DRSC18717 | 1.19e5 | 5447 | inactive
CG7330 | DRSC10813 | 1.73e5 | 8786 | inactive
CG7330 | DRSC10814 | 1.60e5 | 8578 | inactive
bbx + waw | DRSC20575 | 1.52e5 | 5335 | inactive
bbx + waw | DRSC20589 | 1.38e5 | 6933 | inactive
nAChRalpha1 (nicotinic Acetylcholine Receptor alpha1) | DRSC13664 | 74631 | 2327 | inactive
nAChRalpha1 (nicotinic Acetylcholine Receptor alpha1) | DRSC13670 | 76033 | 2601 | inactive
nAChRalpha1 (nicotinic Acetylcholine Receptor alpha1) | DRSC13672 | 85905 | 2229 | inactive
nAChRalpha1 (nicotinic Acetylcholine Receptor alpha1) | DRSC17008 | 1.08e5 | 5425 | inactive
Trf4 (TBP-related factor 4) | DRSC00729 | 1.65e5 | 5719 | inactive
atos (atossa) | DRSC07318 | 1.12e5 | 4231 | inactive
Acsx4 (Acyl-CoA synthetase X4) | DRSC14311 | 1.31e5 | 7661 | inactive
CG3156 | DRSC18503 | 1989 | 764 | inactive
Rsph3 (Radial spoke head protein 3) | DRSC09696 | 77701 | 3794 | inactive
Rsph3 (Radial spoke head protein 3) | DRSC10211 | 96237 | 3959 | inactive
ovo | DRSC18050 | 8882 | 748 | inactive
ovo | DRSC18812 | 1.05e5 | 5480 | inactive
CG15144 | DRSC02445 | 1.04e5 | 3826 | inactive
Acsx1L (Acyl-CoA synthetase X1 L) | DRSC16014 | 1.36e5 | 6596 | inactive
eEF1gamma (eukaryotic translation elongation factor 1 gamma) | DRSC16659 | 76533 | 6718 | inactive
CG12374 | DRSC06143 | 1.11e5 | 4405 | inactive
CG17717 | DRSC18130 | 1.18e5 | 5755 | inactive
yellow-g | DRSC08575 | 94505 | 4277 | inactive
run (runt) | DRSC20584 | 1.56e5 | 5893 | inactive
CG12177 | DRSC19437 | 74714 | 3999 | inactive
CG10993 | DRSC19362 | 1.42e5 | 6274 | inactive
ND-19 (NADH dehydrogenase (ubiquinone) 19 kDa subunit) | DRSC04404 | 1.18e5 | 4475 | inactive
chico | DRSC03531 | 69358 | 3381 | inactive
CG11293 (retired record) | DRSC04098 | 99708 | 3808 | inactive
Rph (Rabphilin) | DRSC17790 | 50076 | 3778 | inactive
mRpS22 (mitochondrial ribosomal protein S22) | DRSC14488 | 1822 | 1032 | inactive
CG31688 | DRSC02682 | 86625 | 3534 | inactive
fkh (fork head) | DRSC16949 | 1.10e5 | 5889 | inactive
U3-55K (U3 small nuclear riboprotein factor 55K) | DRSC05982 | 1.03e5 | 4450 | inactive
CG7133 | DRSC11798 | 69672 | 3722 | inactive
Cyt-b5 (Cytochrome b5) | DRSC07392 | 3004 | 172 | inactive
Or33b (Odorant receptor 33b) | DRSC03387 | 89484 | 3372 | inactive
CG12420 | DRSC14514 | 1.45e5 | 6618 | inactive
CG13982 | DRSC02314 | 1.43e5 | 5226 | inactive
mRpL15 (mitochondrial ribosomal protein L15) | DRSC11771 | 70191 | 4214 | inactive
CG11342 | DRSC08175 | 85034 | 3792 | inactive
CG3216 | DRSC04347 | 1.03e5 | 5080 | inactive
Ets97D (Ets at 97D) | DRSC16665 | 1.26e5 | 6304 | inactive
CG14632 (retired record) | DRSC17942 | 1.20e5 | 5246 | inactive
CG31636 | DRSC02276 | 1.39e5 | 5457 | inactive
CG11893 | DRSC14429 | 1.18e5 | 6039 | inactive
ND-B14 (NADH dehydrogenase (ubiquinone) B14 subunit) | DRSC07029 | 1.41e5 | 4768 | inactive
CG5886 | DRSC15908 | 1786 | 884 | inactive
ND-39 (NADH dehydrogenase (ubiquinone) 39 kDa subunit) | DRSC11791 | 83468 | 3619 | inactive
CG31183 | DRSC14403 | 1.18e5 | 6400 | inactive
CG31183 | DRSC15554 | 75079 | 3491 | inactive

A portion of the results above, as a working copy:
predicted target | DRSC id | E2F firefly, rep 1 | Renilla normaliser, rep 1 | Call
Acsx4 (Acyl-CoA synthetase X4) | DRSC14311 | 1.31e5 | 7661 | inactive
CG3156 | DRSC18503 | 1989 | 764 | inactive
Rsph3 (Radial spoke head protein 3) | DRSC09696 | 77701 | 3794 | inactive
Rsph3 (Radial spoke head protein 3) | DRSC10211 | 96237 | 3959 | inactive
ovo | DRSC18050 | 8882 | 748 | inactive
ovo | DRSC18812 | 1.05e5 | 5480 | inactive
CG15144 | DRSC02445 | 1.04e5 | 3826 | inactive
Acsx1L (Acyl-CoA synthetase X1 L) | DRSC16014 | 1.36e5 | 6596 | inactive
